Measurements reported in PubChem BioAssay AID1259424 (University of Nebraska Medical Center, 2018).

Aim: 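Find knockdowns that reproduce the expression shifts seen after KSR1 loss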 (primary screen)
Cell system: human HCT116 colon cancer cells
Reagent: siRNA pool against human genes, 50 nM
Measured: 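Six signature mRNAs by branched-DNA multiplex assay, scaled to two housekeeping genes and non-targeting median, log2; matched to mean KSR1 knockdown profile by Pearson correlation and euclidean distance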
Reading the numbers: mean correlation with KSR1 profile and KSR1 correlation: higher = expression change more like KSR1 knockdown; mean distance from KSR1 profile: higher = expression change less like KSR1 knockdown
Shown is an unselected part of about 14,000 reagents tested. 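Higher correlation or smaller distance means closer resemblance to KSR1 loss; control wells, including KSR1 knockdowns, recur on many plates.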 Reagents against one gene are numbered here. The record does not give: the time to read-out.

no.	target gene	reagent no.	mean correlation with KSR1 profile	mean distance from KSR1 profile	KSR1 correlation, replicate 1	KSR1 correlation, replicate 2	KSR1 correlation, replicate 3
1	PPP1R9A	1	0.468	1.59	0.347	0.448	0.0909
2	TNFRSF11B	1	-0.0141	3.31	0.0308	-0.129	0.139
3	ATP6AP2	1	0.0124	1.93	0.144	-0.0115	-0.0556
4	FGFR1OP2	1	-0.644	2.57	-0.539	-0.54	-0.67
5	PRDM4	1	0.362	1.72	0.536	0.811	0.199
6	RNF17	1	-0.948	2.14	-0.933	-0.89	-0.76
7	RNF17	2	-0.241	1.22	-0.0508	-0.579	-0.301
8	MCHR1	1	0.361	2.55	0.391	0.415	0.143
9	ANXA2P3	1	-0.809	2.19	-0.783	-0.728	-0.721
10	SSB	1	0.58	1.52	0.695	0.447	0.535
11	SPEF2	1	0.36	1.86	0.337	0.493	0.311
12	CDC34	1	-0.212	1.71	-0.243	-0.226	-0.277
13	BARD1	1	0.037	1.84	0.0303	-0.0043	0.0491
14	GP1BB	1	0.532	2.03	0.524	0.532	0.476
15	SUN2	1	-0.604	3.45	-0.436	-0.619	-0.619
16	MARCHF7	1	-0.131	1.02	-0.316	-0.512	-0.0694
17	CCDC54	1	0.454	1.95	0.423	0.115	0.647
18	CCL1	1	0.11	1.43	0.252	0.0613	-0.0889
19	SPG11	1	-0.0539	2.13	-0.431	-0.071	-0.0122
20	COPB1	1	-0.48	4.55	-0.536	-0.209	-0.55
21	CUTC	1	-0.0669	1.96	-0.207	-0.18	0.388
22	CCDC33	1	0.234	1.49	0.179	0.152	-0.121
23	BEST3	1	-0.38	2.68	-0.577	-0.171	-0.44
24	DUX4L8	1	0.327	1.96	0.0199	0.508	0.439
25	CDK20	1	0.813	1.49	0.801	0.901	0.141
26	HDHD2	1	-0.712	2.6	-0.647	-0.75	-0.748

Entries above whose gene name starts with S or s (4):
target gene	reagent no.	mean correlation with KSR1 profile	mean distance from KSR1 profile	KSR1 correlation, replicate 1	KSR1 correlation, replicate 2	KSR1 correlation, replicate 3
SSB	1	0.58	1.52	0.695	0.447	0.535
SPEF2	1	0.36	1.86	0.337	0.493	0.311
SUN2	1	-0.604	3.45	-0.436	-0.619	-0.619
SPG11	1	-0.0539	2.13	-0.431	-0.071	-0.0122

The results go on:
no.	target gene	reagent no.	mean correlation with KSR1 profile	mean distance from KSR1 profile	KSR1 correlation, replicate 1	KSR1 correlation, replicate 2	KSR1 correlation, replicate 3
27	AFG3L1P	1	0.156	2.01	0.128	-0.124	0.233
28	RIMS1	1	-0.00732	1.76	0.18	-0.215	0.0605
29	APCS	1	0.346	1.47	0.403	0.425	-0.236
30	HMG20A	1	0.428	2.18	0.486	0.596	0.439
31	KIAA0087	1	0.02	4.63	0.114	0.0498	0.0618
32	ZFAND6	1	-0.162	1.4	-0.295	-0.0887	-0.0534
33	TENM3	1	-0.393	2.43	-0.574	-0.561	-0.403
34	POU6F2	1	-0.694	2.53	-0.598	-0.693	-0.615
35	TUBA3C	1	-0.107	4.33	0.00458	-0.102	-0.284
36	HPS4	1	0.0553	1.75	0.354	-0.367	0.334
37	CTPS1	1	-0.335	3.57	-0.71	-0.363	0.225
38	PIK3C2A	1	0.551	3.28	0.572	0.659	0.493
39	PPIG	1	-0.107	4.43	-0.24	-0.0517	-0.154
40	ZFYVE19	1	0.609	1.82	0.511	0.606	0.521
41	SMARCC2	1	0.721	1.08	0.703	0.79	0.525
42	DRC7	1	0.731	1.18	0.469	0.636	0.735
43	ALOX15	1	-0.317	4.55	-0.0687	-0.3	-0.612
44	ADM2	1	0.622	1.38	0.553	0.6	0.489
45	CEP19	1	0.431	1.81	0.407	0.449	0.227
46	ACTB	1	-0.717	2.57	-0.624	-0.839	-0.693
47	RAB33B	1	0.797	1.38	0.699	0.783	0.747
48	DACT1	1	0.118	2.75	0.133	-0.107	0.0494
49	CD36	1	0.171	1.97	0.158	0.0637	0.275
50	RELCH	1	0.329	3.26	0.337	0.0756	0.472
